In patent US20160326240A1:
Substitutions are numbered along the chain they refer to. Results are given in words; binding and its absence hold for the method and conditions named. Some entries that bind do so weakly or less than the wild type. For some assays here: Tags and fused reporters may be left off the sequences shown.

The chains behind the UniProt entries cited, without tags or fusion partners. Residues count along the entry.
UniProt Q6ZVN8, residues 36-400: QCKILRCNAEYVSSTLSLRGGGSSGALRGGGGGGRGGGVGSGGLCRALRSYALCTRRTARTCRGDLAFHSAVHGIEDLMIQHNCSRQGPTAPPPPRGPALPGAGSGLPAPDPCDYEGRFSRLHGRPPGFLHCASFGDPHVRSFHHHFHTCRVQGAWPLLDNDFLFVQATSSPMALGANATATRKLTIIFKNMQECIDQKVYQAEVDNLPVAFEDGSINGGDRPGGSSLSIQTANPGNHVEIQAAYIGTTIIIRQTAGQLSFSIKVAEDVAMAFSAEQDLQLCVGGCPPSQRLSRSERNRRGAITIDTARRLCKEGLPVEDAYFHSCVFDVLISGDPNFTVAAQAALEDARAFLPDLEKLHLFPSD

B1: AE12-1 (antibody, V domains shown)
VH: EVQLVQSGAEVKKPGASVKVSCKASGYTFTSHGISWVRQAPGQGLDWMGWISPYSGNTNYAQKLQGRVTMTTDTSTSTAYMELSSLRSEDTAVYYCARVGSGPYYYMDVWGQGTLVTVSS
VL: QSALTQPRSVSGSPGQSVTISCTGTSSSVGDSIYVSWYQQHPGKAPKLMLYDVTKRPSGVPDRFSGSKSGNTASLTISGLQAEDEADYYCCSYAGTDTLFGGGTKVTVL
B2: AE12-8 (antibody, V domains shown)
VH: EVQLLESGGGLVKPGGSLRLSCAASGFTFDDYAMHWVRQAPGKGLEWVSLISWDGGSTYYADSVKGRFTISRDNSKNSLYLQMNSLRAEDTALYYCAKDIPKVGGYSYGYGALGYWGQGTPVTVSS
VL: SYELTQPPSVSVAPGQTARITCGGNNIGDISVHWYQQKSGQAPMLVVHDDSDRPSGIPERFSGSNSGSSATLTISRVEAGDEADYHCQVWDSGSGHHVFGTGTKVTVL
B3: AE12-3 (antibody, V domains shown)
VH: EVQLVESGGGLVQPGRSLRLSCAASGFTFDDYAMHWVRQAPGKGLEWVAVISYDGSNKYYADSVKGRFTISRDNSKNTLYLQMNSLRAEDTAVYYCARERVYSSGKEGYYYGMDVWGQGTMVTVSS
VL: QSGLTQPPSVSAAPGQRVTISCTGSGSNIGAGYGVHWYQQLPATAPKILIYGDYNRPSGVPDRFSGSRSGTSASLTITGLQAEDEADYYCQSYDNSLRGVLFGGGTKLTVL
B4: AE12-4 (antibody, V domains shown)
VH: EVQLVESGGGVVQPGTSLRLSCAASGFPFSSYGMHWVRQAPGKGLEWVAAISGDGILKYYTDSVKGRFTISRDNSKNTLYLQMNNLSGEDTGLYYCARNYDNSLDYWGQGTLVTVSS
VL: QPVLTQSPSVSASLGASVKVTCTLSSGHSAYAIAWHQQQPEKGPRYLMKVNSDGSHNKGDGVPDRFSGSSSGAERYLIISGLQSEDEADYYCQTWGPGIRVFGGGTKLTVL
B5: AE12-5 (antibody, V domains shown)
VH: EVQLVQSGAEVKKPGASVKVSCKVSGHSLSELTIHWVRQAPGKGLEWMGGFDPEDGRGTYAPNFRGRVTMTEDTSTDTAYMELSGLRSEDAAVYYCATLLGEYDSYFDLWGRGTLVTVSS
VL: DVVMTQSPDFQSVTPEDKVTITCRASQSIGSCLHWYQQKPDQSPKLLIKYASQSISGVPSRFSGSGSGTDFTLTINSLEAEDAATYYCHQSSSLPYTFGQGTKLEIK
B6: AE12-1-H (antibody, V domains shown)
VH: B1 VH
VL: B1 VL with C91H
B7: AE12-1-L (antibody, V domains shown)
VH: B1 VH
VL: B1 VL with C91L
B8: AE12-1-V (antibody, V domains shown)
VH: B1 VH
VL: B1 VL with C91V
B9: AE12-1-I (antibody, V domains shown)
VH: B1 VH
VL: B1 VL with C91I
B10: AE12-1-K (antibody, V domains shown)
VH: B1 VH
VL: B1 VL with C91K
B11: AE12-1-F (antibody, V domains shown)
VH: B1 VH
VL: B1 VL with C91F
B12: AE12-1-Y (antibody, V domains shown)
VH: B1 VH
VL: B1 VL with C91Y
B13: AE12-13 (antibody, V domains shown)
VH: EVQLQESGAGLLKPSETLSLTCAVYGGSFSGYYWSWIRQPPGKGLEWIGEINHSGSTNYNPSLKSRVTISVDTSKNQFSLKLSSVTAADTAVYYCARDDGAGVFDLWGRGTLVTVSS
VL: DIQLTQSPSSLSASVGDGVTITCQASQDISNYLNWYQQKPGKAPKLLIYDASNLETGVPSRFSGSGSGTFFTLTINNLQPEDFATYYCQQSGNTPWTFGQGTKVEINR
B14: AE12-15 (antibody, V domains shown)
VH: EVQLVQSGAEVKEPGASVKVSCKASGYTFTDYYIQWVRQAPGHGLEWMGWINPKTGGTNYLQKFQGRVTMTRDTSTRTAYMELSSLRSDDTAFYYCVREDMNTVLATSWFDPWGQGTLVTVSS
VL: SYELTQPPSVSVSPGQTARITCSGNQLGHKFASWYQQKPGQSPVVVIYEDKKRPSGIPERFSGSNSGNTATLTISGTQAMDEADYYCQVWDVITDHYVFGTGTKVTVLG
B15: AE12-20 (antibody, V domains shown)
VH: EVQLVQSGSEVKKPGASVKLSCKTSGYTFTNSAIHWVRQAPGQRLEWMGWINAGNGNTKYSQKFQGRVTITRDTSASTAYMELSSLRSEDTAVYYCAWAYCGGDCYSLDYWGQGTLVTVSS
VL: DIQVTQSPSSLAASVGDRVTITCQASQDISNYLNWYQQRPGKAPKLLIYDASNLETGVPPRFSGDGSGTHFSFTITNVQPEDVGTYYCQQYDSLPLTFGQGTRLEIKR
B16: AE12-21 (antibody, V domains shown)
VH: EVQLLESGGDLVRPGGSLRLTCEGSGFNFFTQTIHWVRQAPGKGLEWVASISSDSNYIYHADSLKGRFTVSRDNAQDSVFLQMNSLRVEDTAVYYCARDILLEPLAPHYYYGLDVWGQGTTVTVSS
VL: DIQVTQSPSSLSASVGDRVTITCRASQPISTYVNWYQQKPGKAPKLLIYDASTLEIGVPSRISGSGSGTDFTFTISSLQPEDIATYYCQQYDNFPLTFGGGTKVDIKR
B17: AE12-23 (antibody, V domains shown)
VH: EVQLQESGPGLVKPSETLSLTCTVSGGSISGYYWSWIRQSPGKGLEWIGEIFHTGRTYYNPSLRSRLTISVDTSKNQFSLKLSSLTAADTAVYYCARDSAFGSFDYWGQGTLVTVSS
VL: DIRVTQSPSSLSASVGDRVTITCQANEDISIYLNWYQQRPGKAPKLLIYDASNLETGVPSRFSGSGSGTDFTFTISSLQPEDFATYYCQQYHTYPFTFGGGTKVDIKR
B18: AE12-24 (antibody, V domains shown)
VH: EVQLQESGPGLVKPSETLSLTCNVSGGSISSYYWSWIRQPPGKGLEWIGNIYYSGSTNYNPSLKSRVTISVDTSKSQFSLKLSSVTAADTAVYYCARALDFWSGQYFDYWGQGTLVTVSS
VL: DIVMTQTPSSLSASVGDRVTITCQASQDISDYLNWYQQKPGKAPKLLIYDASTLESGVPSRFSGSGSGTDFTLTISGLQPEDFATYYCQQSYSIPPTFGPGTRLEIKR
B19: h5F9.23 (antibody, V domains shown)
VH: EVQLVESGGGLVQPGGSLRLSCAASGFTFSNYGMNWIRQAPGKGLEWIGMIYYDSSEKHYADSVKGRFTISRDNSKNTLYLQMNSLRAEDTAVYYCAKGTTPDYWGQGTMVTVSS
VL: DVVLTQSPLSLPVTLGQPASISCRSSQSLEYSDGYTFLEWFQQRPGQSPRLLIYEVSNRFSGVPDRFSGSGSGTDFTLKISRVEAEDVGVYYCFQATHDPLTFGQGTKLEIKR

These binders were tested against T1, human RGMa (human) (UniProt Q96B86) (assay: direct binding ELISA).
T1 sequence: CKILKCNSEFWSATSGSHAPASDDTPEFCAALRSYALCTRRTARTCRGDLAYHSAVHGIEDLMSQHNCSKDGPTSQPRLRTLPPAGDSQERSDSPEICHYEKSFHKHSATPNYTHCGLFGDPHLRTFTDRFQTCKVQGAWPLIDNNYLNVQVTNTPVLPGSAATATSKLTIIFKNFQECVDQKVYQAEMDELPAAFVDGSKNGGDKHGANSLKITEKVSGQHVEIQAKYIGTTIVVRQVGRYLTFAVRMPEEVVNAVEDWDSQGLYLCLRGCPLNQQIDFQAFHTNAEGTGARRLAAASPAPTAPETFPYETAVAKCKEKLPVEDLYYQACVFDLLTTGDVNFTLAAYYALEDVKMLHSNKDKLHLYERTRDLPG

binding, binds:
B1
B2
B3
B4
B5

The binders below were run against T2, hRGMa-His (human) (UniProt Q96B86) (assay: BIAcore).
T2 sequence: T1 sequence

binding, binds:
B1
B6
B7
B8
B9
B10

Each binder was assayed against T1, human RGMa (human) (assay: RGMa-based ELISA screen of IgGs).

binding, binds:
B1
B2
B3
B4
B5

The binders below were run against T1, human RGMa (human) (assay: hRGMa binding (ELISA)).

binding, binds:
B1
B2
B3
B4
B5
B6
B7
B8
B9
B10
B11
B12

These binders were tested against T1, human RGMa (human) (assay: human RGMa ELISA screen of IgGs).

binding, binds:
B13
B14
B15
B16
B17
B18

These binders were tested against hRGMc-His (human) (UniProt Q6ZVN8) (assay: hRGMc-His ELISA).

binding, binds:
B19
